Test results as given in patent US11065203B2, “Liposomal compositions and uses of same” (Technion Research & Development Foundation Limited, priority 2009, dated 2021).

B1: Q9BS26 (protein, UniProt Q9BS26 1-406, looked up)
chain: MHPAVFLSLPDLRCSLLLLVTWVFTPVTTEITSLDTENIDEILNNADVALVNFYADWCRFSQMLHPIFEEASDVIKEEFPNENQVVFARVDCDQHSDIAQRYRISKYPTLKLFRNGMMMKREYRGQRSVKALADYIRQQKSDPIQEIRDLAEITTLDRSKRNIIGYFEQKDSDNYRVFERVANILHDDCAFLSAFGDVSKPERYSGDNIIYKPPGHSAPDMVYLGAMTNFDVTYNWIQDKCVPLVREITFENGEELTEEGLPFLILFHMKEDTESLEIFQNEVARQLISEKGTINFLHADCDKFRHPLLHIQKTPADCPVIAIDSFRHMYVFGDFKDVLIPGKLKQFVFDLHSGKLHREFHHGPDPTDTAPGEQAQDVASSPPESSFQKLAPSEYRYTLLRDRDEL
modifications: full-length
B2: P10515 (protein, UniProt P10515 1-647, looked up)
chain: MWRVCARRAQNVAPWAGLEARWTALQEVPGTPRVTSRSGPAPARRNSVTTGYGGVRALCGWTPSSGATPRNRLLLQLLGSPGRRYYSLPPHQKVPLPSLSPTMQAGTIARWEKKEGDKINEGDLIAEVETDKATVGFESLEECYMAKILVAEGTRDVPIGAIICITVGKPEDIEAFKNYTLDSSAAPTPQAAPAPTPAATASPPTPSAQAPGSSYPPHMQVLLPALSPTMTMGTVQRWEKKVGEKLSEGDLLAEIETDKATIGFEVQEEGYLAKILVPEGTRDVPLGTPLCIIVEKEADISAFADYRPTEVTDLKPQVPPPTPPPVAAVPPTPQPLAPTPSAPCPATPAGPKGRVFVSPLAKKLAVEKGIDLTQVKGTGPDGRITKKDIDSFVPSKVAPAPAAVVPPTGPGMAPVPTGVFTDIPISNIRRVIAQRLMQSKQTIPHYYLSIDVNMGEVLLVRKELNKILEGRSKISVNDFIIKASALACLKVPEANSSWMDTVIRQNHVVDVSVAVSTPAGLITPIVFNAHIKGVETIANDVVSLATKAREGKLQPHEFQGGTFTISNLGMFGIKNFSAIINPPQACILAIGASEDKLVPADNEKGFDVASMMSVTLSCDHRVVDGAVGAQWLAEFRKYLEKPITMLL
modifications: full-length
B3: P54886 (protein, UniProt P54886 1-795, looked up)
chain: MLSQVYRCGFQPFNQHLLPWVKCTTVFRSHCIQPSVIRHVRSWSNIPFITVPLSRTHGKSFAHRSELKHAKRIVVKLGSAVVTRGDECGLALGRLASIVEQVSVLQNQGREMMLVTSGAVAFGKQRLRHEILLSQSVRQALHSGQNQLKEMAIPVLEARACAAAGQSGLMALYEAMFTQYSICAAQILVTNLDFHDEQKRRNLNGTLHELLRMNIVPIVNTNDAVVPPAEPNSDLQGVNVISVKDNDSLAARLAVEMKTDLLIVLSDVEGLFDSPPGSDDAKLIDIFYPGDQQSVTFGTKSRVGMGGMEAKVKAALWALQGGTSVVIANGTHPKVSGHVITDIVEGKKVGTFFSEVKPAGPTVEQQGEMARSGGRMLATLEPEQRAEIIHHLADLLTDQRDEILLANKKDLEEAEGRLAAPLLKRLSLSTSKLNSLAIGLRQIAASSQDSVGRVLRRTRIAKNLELEQVTVPIGVLLVIFESRPDCLPQVAALAIASGNGLLLKGGKEAAHSNRILHLLTQEALSIHGVKEAVQLVNTREEVEDLCRLDKMIDLIIPRGSSQLVRDIQKAAKGIPVMGHSEGICHMYVDSEASVDKVTRLVRDSKCEYPAACNALETLLIHRDLLRTPLFDQIIDMLRVEQVKIHAGPKFASYLTFSPSEVKSLRTEYGDLELCIEVVDNVQDAIDHIHKYGSSHTDVIVTEDENTAEFFLQHVDSACVFWNASTRFSDGYRFGLGAEVGISTSRIHARGPVGLEGLLTTKWLLRGKDHVVSDFSEHGSLKYLHENLPIPQRNTN
modifications: full-length
B4: Q96I99 (protein, UniProt Q96I99 1-432, looked up)
chain: MASPVAAQAGKLLRALALRPRFLAAGSQAVQLTSRRWLNLQEYQSKKLMSDNGVRVQRFFVADTANEALEAAKRLNAKEIVLKAQILAGGRGKGVFNSGLKGGVHLTKDPNVVGQLAKQMIGYNLATKQTPKEGVKVNKVMVAEALDISRETYLAILMDRSCNGPVLVGSPQGGVDIEEVAASNPELIFKEQIDIFEGIKDSQAQRMAENLGFVGPLKSQAADQITKLYNLFLKIDATQVEVNPFGETPEGQVVCFDAKINFDDNAEFRQKDIFAMDDKSENEPIENEAAKYDLKYIGLDGNIACFVNGAGLAMATCDIIFLNGGKPANFLDLGGGVKEAQVYQAFKLLTADPKVEAILVNIFGGIVNCAIIANGITKACRELELKVPLVVRLEGTNVQEAQKILNNSGLPITSAIDLEDAAKKAVASVAKK
modifications: full-length
B5: Q6PIU2 (protein, UniProt Q6PIU2 1-408, looked up)
chain: MRSSCVLLTALVALAAYYVYIPLPGSVSDPWKLMLLDATFRGAQQVSNLIHYLGLSHHLLALNFIIVSFGKKSAWSSAQVKVTDTDFDGVEVRVFEGPPKPEEPLKRSVVYIHGGGWALASAKIRYYDELCTAMAEELNAVIVSIEYRLVPKVYFPEQIHDVVRATKYFLKPEVLQKYMVDPGRICISGDSAGGNLAAALGQQFTQDASLKNKLKLQALIYPVLQALDFNTPSYQQNVNTPILPRYVMVKYWVDYFKGNYDFVQAMIVNNHTSLDVEEAAAVRARLNWTSLLPASFTKNYKPVVQTTGNARIVQELPQLLDARSAPLIADQAVLQLLPKTYILTCEHDVLRDDGIMYAKRLESAGVEVTLDHFEDGFHGCMIFTSWPTNFSVGIRTRNSYIKWLDQNL
modifications: full-length
B6: Q14165 (protein, UniProt Q14165 1-292, looked up)
chain: MLGAWAVEGTAVALLRLLLLLLPPAIRGPGLGVAGVAGAAGAGLPESVIWAVNAGGEAHVDVHGIHFRKDPLEGRVGRASDYGMKLPILRSNPEDQILYQTERYNEETFGYEVPIKEEGDYVLVLKFAEVYFAQSQQKVFDVRLNGHVVVKDLDIFDRVGHSTAHDEIIPMSIRKGKLSVQGEVSTFTGKLYIEFVKGYYDNPKVCALYIMAGTVDDVPKLQPHPGLEKKEEEEEEEEYDEGSNLKKQTNKNRVQSGPRTPNPYASDNSSLMFPILVAFGVFIPTLFCLCRL
modifications: full-length
B7: P04181 (protein, UniProt P04181 1-439, looked up)
chain: MFSKLAHLQRFAVLSRGVHSSVASATSVATKKTVQGPPTSDDIFEREYKYGAHNYHPLPVALERGKGIYLWDVEGRKYFDFLSSYSAVNQGHCHPKIVNALKSQVDKLTLTSRAFYNNVLGEYEEYITKLFNYHKVLPMNTGVEAGETACKLARKWGYTVKGIQKYKAKIVFAAGNFWGRTLSAISSSTDPTSYDGFGPFMPGFDIIPYNDLPALERALQDPNVAAFMVEPIQGEAGVVVPDPGYLMGVRELCTRHQVLFIADEIQTGLARTGRWLAVDYENVRPDIVLLGKALSGGLYPVSAVLCDDDIMLTIKPGEHGSTYGGNPLGCRVAIAALEVLEEENLAENADKLGIILRNELMKLPSDVVTAVRGKGLLNAIVIKETKDWDAWKVCLRLRDNGLLAKPTHGDIIRFAPPLVIKEDELRESIEIINKTILSF
modifications: full-length
B8: Q92896 (protein, UniProt Q92896 1-1179, looked up)
chain: MAACGRVRRMFRLSAALHLLLLFAAGAEKLPGQGVHSQGQGPGANFVSFVGQAGGGGPAGQQLPQLPQSSQLQQQQQQQQQQQQPQPPQPPFPAGGPPARRGGAGAGGGWKLAEEESCREDVTRVCPKHTWSNNLAVLECLQDVREPENEISSDCNHLLWNYKLNLTTDPKFESVAREVCKSTITEIKECADEPVGKGYMVSCLVDHRGNITEYQCHQYITKMTAIIFSDYRLICGFMDDCKNDINILKCGSIRLGEKDAHSQGEVVSCLEKGLVKEAEEREPKIQVSELCKKAILRVAELSSDDFHLDRHLYFACRDDRERFCENTQAGEGRVYKCLFNHKFEESMSEKCREALTTRQKLIAQDYKVSYSLAKSCKSDLKKYRCNVENLPRSREARLSYLLMCLESAVHRGRQVSSECQGEMLDYRRMLMEDFSLSPEIILSCRGEIEHHCSGLHRKGRTLHCLMKVVRGEKGNLGMNCQQALQTLIQETDPGADYRIDRALNEACESVIQTACKHIRSGDPMILSCLMEHLYTEKMVEDCEHRLLELQYFISRDWKLDPVLYRKCQGDASRLCHTHGWNETSEFMPQGAVFSCLYRHAYRTEEQGRRLSRECRAEVQRILHQRAMDVKLDPALQDKCLIDLGKWCSEKTETGQELECLQDHLDDLVVECRDIVGNLTELESEDIQIEALLMRACEPIIQNFCHDVADNQIDSGDLMECLIQNKHQKDMNEKCAIGVTHFQLVQMKDFRFSYKFKMACKEDVLKLCPNIKKKVDVVICLSTTVRNDTLQEAKEHRVSLKCRRQLRVEELEMTEDIRLEPDLYEACKSDIKNFCSAVQYGNAQIIECLKENKKQLSTRCHQKVFKLQETEMMDPELDYTLMRVCKQMIKRFCPEADSKTMLQCLKQNKNSELMDPKCKQMITKRQITQNTDYRLNPMLRKACKADIPKFCHGILTKAKDDSELEGQVISCLKLRYADQRLSSDCEDQIRIIIQESALDYRLDPQLQLHCSDEISSLCAEEAAAQEQTGQVEECLKVNLLKIKTELCKKEVLNMLKESKADIFVDPVLHTACALDIKHHCAAITPGRGRQMSCLMEALEDKRVRLQPECKKRLNDRIEMWSYAAKVAPADGFSDLAMQVMTSPSKNYILSVISGSICILFLIGLMCGRITKRVTRELKDR
modifications: full-length
B9: Q9H845 (protein, UniProt Q9H845 1-621, looked up)
chain: MSGCGLFLRTTAAARACRGLVVSTANRRLLRTSPPVRAFAKELFLGKIKKKEVFPFPEVSQDELNEINQFLGPVEKFFTEEVDSRKIDQEGKIPDETLEKLKSLGLFGLQVPEEYGGLGFSNTMYSRLGEIISMDGSITVTLAAHQAIGLKGIILAGTEEQKAKYLPKLASGEHIAAFCLTEPASGSDAASIRSRATLSEDKKHYILNGSKVWITNGGLANIFTVFAKTEVVDSDGSVKDKITAFIVERDFGGVTNGKPEDKLGIRGSNTCEVHFENTKIPVENILGEVGDGFKVAMNILNSGRFSMGSVVAGLLKRLIEMTAEYACTRKQFNKRLSEFGLIQEKFALMAQKAYVMESMTYLTAGMLDQPGFPDCSIEAAMVKVFSSEAAWQCVSEALQILGGLGYTRDYPYERILRDTRILLIFEGTNEILRMYIALTGLQHAGRILTTRIHELKQAKVSTVMDTVGRRLRDSLGRTVDLGLTGNHGVVHPSLADSANKFEENTYCFGRTVETLLLRFGKTIMEEQLVLKRVANILINLYGMTAVLSRASRSIRIGLRNHDHEVLLANTFCVEAYLQNLFSLSQLDKYAPENLDEQIKKVSQQILEKRAYICAHPLDRTC
modifications: full-length
B10: Q92520 (protein, UniProt Q92520 1-227, looked up)
chain: MRVAGAAKLVVAVAVFLLTFYVISQVFEIKMDASLGNLFARSALDTAARSTKPPRYKCGISKACPEKHFAFKMASGAANVVGPKICLEDNVLMSGVKNNVGRGINVALANGKTGEVLDTKYFDMWGGDVAPFIEFLKAIQDGTIVLMGTYDDGATKLNDEARRLIADLGSTSITNLGFRDNWVFCGGKGIKTKSPFEQHIKNNKDTNKYEGWPEVVEMEGCIPQKQD
modifications: full-length

Assay: Proteomics analysis (trypsin digest, LC-MS/MS) of hMSC ghosts and derived CDLs, conditioned or unconditioned by PC3 medium
Parameters: species or system human
Conditions: CDLs derived from conditioned hMSCs versus conditioned ghosts; LC-MS/MS peak area per protein

Molecule | Ratio of expression Cond. CDLs/Cond. Ghosts
B1 | 4%
B2 | 4%
B3 | 4%
B4 | 3%
B5 | 3%
B6 | 3%
B7 | 3%
B8 | 3%
B9 | 7%
B10 | 3%

Same assay, conditions: hMSC ghosts conditioned by PC3 medium versus unconditioned ghosts; LC-MS/MS peak area per protein

Molecule | Ratio of expression Cond Ghosts/Ghosts
B1 | 100%
B2 | 100%
B3 | 100%
B4 | 100%
B5 | 100%
B6 | 100%
B7 | 100%
B8 | 100%
B9 | 209%
B10 | 100%
